Assay results as given in the supplement of paper PMC6411743.
± gives the standard deviation of the averaged measurements. Some of the results follow.

Assays:
Experiment in all cases: NP40-soluble protein abundance relative to vehicle (solubility fold change) (ratio); higher = more soluble protein in presence of GTP
CDKAL1 = biological target: T1, CDKAL1 (UniProt Q5VV42)
T1 sequence (whole entry): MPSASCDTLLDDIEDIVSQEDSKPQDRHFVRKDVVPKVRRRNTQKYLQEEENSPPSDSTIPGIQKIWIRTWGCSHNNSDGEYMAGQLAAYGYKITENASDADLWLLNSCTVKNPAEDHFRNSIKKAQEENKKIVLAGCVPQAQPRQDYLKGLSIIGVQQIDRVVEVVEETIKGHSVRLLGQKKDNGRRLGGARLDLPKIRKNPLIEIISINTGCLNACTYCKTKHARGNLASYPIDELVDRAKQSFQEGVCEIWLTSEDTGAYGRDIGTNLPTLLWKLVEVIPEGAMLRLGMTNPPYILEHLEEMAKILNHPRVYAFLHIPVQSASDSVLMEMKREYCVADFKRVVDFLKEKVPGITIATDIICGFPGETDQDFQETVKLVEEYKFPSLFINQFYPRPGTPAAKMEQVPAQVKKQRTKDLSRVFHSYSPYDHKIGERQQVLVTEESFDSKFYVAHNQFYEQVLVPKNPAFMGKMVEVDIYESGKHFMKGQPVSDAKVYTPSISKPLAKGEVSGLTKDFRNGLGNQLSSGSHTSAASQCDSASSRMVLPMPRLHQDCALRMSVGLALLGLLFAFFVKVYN
Procedure, shortened: (§1)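 Data come from three independent experiments in which Dounce-homogenised Jurkat crude lysate was treated at eight concentrations from 0.1 to 10 mM. Treatment ran 10 min at room temperature and then 3 min at 37 °C, after which 0.8% NP40 and benzonase were added for 60 min at 4 °C before ultracentrifugation. The supernatant underwent TMT labelling and LC-MS/MS, and vsn-normalised intensities were expressed as fold change against the detergent-processed vehicle in each replicate.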

ISCA2 = biological target: T2, ISCA2 (UniProt Q86U28)
T2 sequence (whole entry): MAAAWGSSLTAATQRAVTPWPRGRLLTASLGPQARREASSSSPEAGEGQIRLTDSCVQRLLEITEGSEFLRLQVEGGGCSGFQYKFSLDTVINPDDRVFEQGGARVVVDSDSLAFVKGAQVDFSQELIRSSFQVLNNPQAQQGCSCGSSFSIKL
Procedure, shortened: as §1

NCR3LG1 = biological target: T3, NCR3LG1 (UniProt Q68D85)
T3 sequence (whole entry): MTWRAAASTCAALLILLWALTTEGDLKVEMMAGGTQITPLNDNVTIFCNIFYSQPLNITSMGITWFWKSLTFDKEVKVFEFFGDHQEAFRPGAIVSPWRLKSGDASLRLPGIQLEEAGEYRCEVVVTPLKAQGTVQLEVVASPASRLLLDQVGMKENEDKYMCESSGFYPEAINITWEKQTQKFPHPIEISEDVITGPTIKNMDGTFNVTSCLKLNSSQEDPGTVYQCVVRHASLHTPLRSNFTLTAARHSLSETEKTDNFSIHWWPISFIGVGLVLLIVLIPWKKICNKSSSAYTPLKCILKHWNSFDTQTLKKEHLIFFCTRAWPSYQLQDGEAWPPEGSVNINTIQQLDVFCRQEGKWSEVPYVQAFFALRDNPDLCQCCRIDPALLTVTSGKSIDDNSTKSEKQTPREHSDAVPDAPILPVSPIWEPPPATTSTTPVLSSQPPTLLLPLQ
Procedure, shortened: as §1

PRPF38B = biological target: T4, PRPF38B (UniProt Q5VTL8)
T4 sequence (whole entry): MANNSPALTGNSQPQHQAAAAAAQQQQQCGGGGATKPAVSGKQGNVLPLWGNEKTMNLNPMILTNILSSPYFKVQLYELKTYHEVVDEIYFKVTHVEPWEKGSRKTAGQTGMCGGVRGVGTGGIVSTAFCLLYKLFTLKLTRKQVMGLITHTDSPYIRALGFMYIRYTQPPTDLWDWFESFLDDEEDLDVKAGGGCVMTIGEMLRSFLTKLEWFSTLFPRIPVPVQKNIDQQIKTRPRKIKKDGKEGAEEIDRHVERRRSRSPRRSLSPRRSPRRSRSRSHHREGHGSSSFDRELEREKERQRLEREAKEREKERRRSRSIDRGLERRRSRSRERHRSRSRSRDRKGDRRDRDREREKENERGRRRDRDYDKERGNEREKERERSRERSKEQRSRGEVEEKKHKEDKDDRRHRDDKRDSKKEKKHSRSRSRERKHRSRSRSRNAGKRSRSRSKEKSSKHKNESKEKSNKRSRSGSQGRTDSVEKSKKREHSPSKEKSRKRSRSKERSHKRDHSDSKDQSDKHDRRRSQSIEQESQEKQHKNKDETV
Procedure, shortened: as §1

[1] = biological target: T5, Q5TBI2 and related entries (UniProt Q8NDD1)
T5 sequence (whole entry): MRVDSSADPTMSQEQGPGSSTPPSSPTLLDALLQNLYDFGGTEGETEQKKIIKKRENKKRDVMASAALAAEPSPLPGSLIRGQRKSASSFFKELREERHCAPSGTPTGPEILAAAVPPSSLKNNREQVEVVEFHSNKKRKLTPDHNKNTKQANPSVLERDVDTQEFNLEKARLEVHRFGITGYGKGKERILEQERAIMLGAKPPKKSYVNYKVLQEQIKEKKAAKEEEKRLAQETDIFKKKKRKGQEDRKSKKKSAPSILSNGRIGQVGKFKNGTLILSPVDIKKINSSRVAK
Procedure, shortened: as §1

Compound `Nc1nc2c(ncn2[C@@H]2O[C@H](COP(=O)(O)OP(=O)(O)OP(=O)(O)O)[C@@H](O)[C@H]2O)c(=O)[nH]1` [guanosine triphosphate] has an NP40-soluble protein abundance (CDKAL1; concentration: 0.1mM) of 1.03 ± 0.016, an NP40-soluble protein abundance (CDKAL1; concentration: 0.5mM) of 1.05 ± 0.047 and an NP40-soluble protein abundance (CDKAL1; concentration: 1mM) of 1.01 ± 0.05. The NP40-soluble protein abundance (CDKAL1; concentration: 2mM) was 1.03 ± 0.035, the NP40-soluble protein abundance (CDKAL1; concentration: 4mM) was 1.02 ± 0.022 and the NP40-soluble protein abundance (CDKAL1; concentration: 6mM) was 1.04 ± 0.049. It also gave an NP40-soluble protein abundance (CDKAL1; concentration: 8mM) of 1.01 ± 0.029, an NP40-soluble protein abundance (CDKAL1; concentration: 10mM) of 1.02 ± 0.04 and an NP40-soluble protein abundance (ISCA2; concentration: 0.1mM) of 1.05 ± 0.027. It also gave an NP40-soluble protein abundance (ISCA2; concentration: 0.5mM) of 0.933 ± 0.039, an NP40-soluble protein abundance (ISCA2; concentration: 1mM) of 0.932 ± 0.052 and an NP40-soluble protein abundance (ISCA2; concentration: 2mM) of 0.965 ± 0.097. The NP40-soluble protein abundance (ISCA2; concentration: 4mM) was 0.915 ± 0.086, the NP40-soluble protein abundance (ISCA2; concentration: 6mM) was 0.911 ± 0.071 and the NP40-soluble protein abundance (ISCA2; concentration: 8mM) was 0.861 ± 0.049. The NP40-soluble protein abundance (ISCA2; concentration: 10mM) was 0.902 ± 0.064, the NP40-soluble protein abundance (NCR3LG1; concentration: 0.1mM) was 1.11 ± 0.15 and the NP40-soluble protein abundance (NCR3LG1; concentration: 0.5mM) was 1.22 ± 0.3. The NP40-soluble protein abundance (NCR3LG1; concentration: 1mM) was 1.17 ± 0.14, the NP40-soluble protein abundance (NCR3LG1; concentration: 2mM) was 1.23 ± 0.26 and the NP40-soluble protein abundance (NCR3LG1; concentration: 4mM) was 1.15 ± 0.2. For the same compound, the NP40-soluble protein abundance (NCR3LG1; concentration: 6mM) was 1.22 ± 0.29, the NP40-soluble protein abundance (NCR3LG1; concentration: 8mM) was 1.15 ± 0.11 and the NP40-soluble protein abundance (NCR3LG1; concentration: 10mM) was 0.978 ± 0.12. For the same compound, the NP40-soluble protein abundance (PRPF38B; concentration: 0.1mM) was 1.07 ± 0.11, the NP40-soluble protein abundance (PRPF38B; concentration: 0.5mM) was 1.09 ± 0.065 and the NP40-soluble protein abundance (PRPF38B; concentration: 1mM) was 1.13 ± 0.047. The NP40-soluble protein abundance (PRPF38B; concentration: 2mM) was 0.998 ± 0.083, the NP40-soluble protein abundance (PRPF38B; concentration: 4mM) was 1.02 ± 0.093 and the NP40-soluble protein abundance (PRPF38B; concentration: 6mM) was 0.985 ± 0.08. It also gave an NP40-soluble protein abundance (PRPF38B; concentration: 8mM) of 1.16 ± 0.083, an NP40-soluble protein abundance (PRPF38B; concentration: 10mM) of 1.07 ± 0.074 and an NP40-soluble protein abundance ([1]; concentration: 0.1mM) of 0.993 ± 0.035. For the same compound, the NP40-soluble protein abundance ([1]; concentration: 0.5mM) was 0.966 ± 0.023, the NP40-soluble protein abundance ([1]; concentration: 1mM) was 1.07 ± 0.057 and the NP40-soluble protein abundance ([1]; concentration: 2mM) was 1.18 ± 0.05.
